The full ranking holds about 33,000 sequences; the median of “E-score (-0.5 to 0.5)” is about -8e-05, and the highest 2% start at about 0.23. The list shows a part of the results.
target: T1, Nrg2 (UniProt P38082); test: PBM E-score (8-mer binding enrichment) (E-score (-0.5 to 0.5)); higher = stronger / more preferred TF binding; settings: protein concentration: 100 nM; construct: GST-full length
T1 sequence: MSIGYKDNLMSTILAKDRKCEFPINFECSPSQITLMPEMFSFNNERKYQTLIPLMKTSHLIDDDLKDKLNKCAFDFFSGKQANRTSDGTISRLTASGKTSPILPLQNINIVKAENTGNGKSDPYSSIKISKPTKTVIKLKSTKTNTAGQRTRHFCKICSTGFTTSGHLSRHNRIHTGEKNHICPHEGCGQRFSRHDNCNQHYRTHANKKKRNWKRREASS
Method in brief: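 GST-tagged yeast TFs (full-length or DNA-binding domain) were made by PURExpress in vitro transcription/translation and applied at about 100-200 nM to universal all-10-mer Agilent arrays. The arrays were made double-stranded by primer extension, on fresh or once-stripped slides. Bound protein was detected with fluorescent anti-GST, and scans were normalised with masliner. Each ungapped eight-base word, pooled with its reverse complement, received an E-score (modified Wilcoxon-Mann-Whitney statistic) from the Universal PBM Analysis Suite.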

Row | Sequence | PBM E-score
1 | TTAATCAA | 0.189
2 | GTACTATA | 0.115
3 | CCGAGACC | 0.0704
4 | CAGGAAAC | 0.043
5 | AACTTACG | -0.0379
6 | GGAGCAAC | -0.0766
7 | ACAGCGCT | -0.00397
8 | CATCACCC | 0.0812
9 | AAGTTGAC | -0.0031
10 | AGCGAAGC | -0.168
11 | GTGAAAAC | -0.00418
12 | CAAAAGCA | 0.00741
13 | GAACCGAA | 0.062
14 | AAATCCGG | 0.0878
15 | GGGAAACC | 0.182
16 | CGGGGCTC | -0.13
17 | AGGTAAAT | -0.0123
18 | GGTGATAA | -0.0898
19 | CGTTAATC | 0.0184
20 | CGAGGGGA | -0.0688
21 | ACCAACCT | -0.00259
22 | ATCCCCCG | -0.208
23 | CTAAACAA | -0.144
24 | GCTATTAC | 0.026
25 | GGTCAGTA | -0.108

Pulled one by one from the list above, 2 records:
Row | Sequence | PBM E-score
1 | TTAATCAA | 0.189
9 | AAGTTGAC | -0.0031

Remaining list, next part

Row | Sequence | PBM E-score
26 | GGATGCCA | -0.132
27 | GGGAATAC | -0.0225
28 | TAGCACTA | -0.0158
29 | CCACTTGA | 0.0276
30 | ACAGTCTA | -0.111
31 | CCTTCGGA | -0.0295
32 | CGCTCAGA | -0.108
33 | AACTGCCA | -0.0308
34 | AGCGCATA | 0.0414
35 | CTTAGGTC | 0.0284
36 | ATCCCACG | -0.0431
37 | AGCATACG | -0.0799
38 | CCTATAGC | -0.042
39 | ACGTCATA | -0.014
40 | GCCAGATA | -0.0572
41 | CTAATATC | 0.169
42 | CCGTCAGC | -0.138
43 | ACCATCAA | -0.154
44 | CTCACTAA | -0.00047
45 | GCACAGTA | 0.207
46 | CGACTTTC | -0.0518
47 | CATGGGAC | 0.045
48 | GCAGGGCC | 0.101
49 | AACGGTCA | 0.0266
50 | GGACGGAC | 0.0225

Row | Sequence | PBM E-score
51 | GATGGCAA | 0.0937
52 | AGTCCTTG | -0.0339
53 | AGTGCCCA | 0.0206
54 | CGCCGCTA | 0.142
55 | TAAAGCTA | -0.241
56 | GCAAGAAA | 0.117
57 | ATCGTATC | 0.00646
58 | AACTGCCG | 0.00451
59 | CGCAAGAA | 0.299
60 | CCGAGACG | -0.0212
61 | AATACCGG | 0.0822
62 | ATCGTCAG | -0.0719
63 | ATCACTGA | -0.0438
64 | CTACTGCA | -0.176
65 | CGCCTGTC | -0.106
66 | CAGTCAGG | 0.047
67 | CAAGAGAG | -0.0197
68 | GAAATATA | 0.256
69 | AAGGCGTC | -0.0697
70 | TAGATACA | 0.0563
71 | ACCATGCC | -0.0606
72 | GTCGAGGA | -0.076
73 | AACCACAG | -0.0459
74 | CAGGCCGG | -0.287
75 | GCCGTACC | -0.0541

Row | Sequence | PBM E-score
76 | ACGAAATA | 0.167
77 | CAGTCCGA | -0.0581
78 | CCTGCCCA | -0.0494
79 | CCGTGGAG | -0.226
80 | CTGTAAAG | -0.188
81 | CATGCGAA | 0.134
82 | CCCTCATC | -0.0723
83 | CCTCGCAG | -0.134
84 | ACGCCAAT | 0.165
85 | ATTGTGAG | 0.0877
86 | AATAGACG | 0.0374
87 | CCGTGCTC | 0.0134
88 | CCTCGTCC | -0.0417
89 | ATATGTTC | 0.0931
90 | GGTATGAC | -0.0832
91 | CCTCTGAA | -0.0416
92 | ATAATCAC | 0.164
93 | TTACAAAA | 0.108
94 | GGCCCAGA | -0.206
95 | AAGCCGAT | 0.145
96 | CCCCGGGA | -0.0884
97 | AGAAGATC | -0.00975
98 | AAACCACC | -0.0593
99 | CCTGCGGC | -0.168
100 | ACTACCCA | -0.00273

Six entries from above in a different format.
Row	Sequence	PBM E-score
76	ACGAAATA	0.167
77	CAGTCCGA	-0.0581
78	CCTGCCCA	-0.0494
79	CCGTGGAG	-0.226
80	CTGTAAAG	-0.188
81	CATGCGAA	0.134

As entered above:
ACGCCAAT | PBM E-score: 0.165
ACTACCCA | PBM E-score: -0.00273
GGTATGAC | PBM E-score: -0.0832
AAACCACC | PBM E-score: -0.0593
CCGTGGAG | PBM E-score: -0.226
ATAATCAC | PBM E-score: 0.164
CATGCGAA | PBM E-score: 0.134

(further entries)

Row | Sequence | PBM E-score
101 | AGCAACAT | -0.0597
102 | CCGAGCTC | 0.0994
103 | CCAGTGCA | -0.0882
104 | AGGTCATA | -0.0661
105 | ACATAAAT | 0.173
106 | CAGTCGAG | -0.134
107 | GGACTAAC | -0.147
108 | AACCTCCT | -0.264
109 | GACCTGGA | -0.178
110 | AAAGAATG | 0.0464
111 | AGCCTAAC | -0.172
112 | AGTGGCCC | 0.0766
113 | CAATCCGA | 0.185
114 | GCCCCACC | 0.106
115 | ACCAAAAC | 0.129
116 | TAACACTA | 0.248
117 | ATGTCTCC | 0.0494
118 | ACCGGGAG | -0.288
119 | AGGACCGG | -0.203
120 | GGACCGGA | -0.0717
121 | CTGGACGC | -0.0455
122 | CGTGAAGA | -0.0995
123 | GAATATCA | 0.0654
124 | CCTTCTTA | -0.0639
125 | GGCAGCCA | -0.144

Row | Sequence | PBM E-score
126 | ATAAGATC | 0.00507
127 | CACAACCG | 0.163
128 | CAGATCCC | -0.0225
129 | CTACTTGA | 0.0491
130 | ATGTGGAC | -0.0186
131 | ATGGACGA | 0.0668
132 | GCTCTAGA | -0.119
133 | GTGGCGTA | -0.0871
134 | TCGACCAA | -0.0185
135 | TATTCCAA | 0.0202
136 | CTGTTACC | -0.11
137 | GCGTAGAC | -0.102
138 | ATGTTGTG | 0.0966
139 | ACCGGCGC | 0.122
140 | ACCGCCAA | 0.00879
141 | AGGAACTG | 0.0301
142 | CATTCTTA | 0.134
143 | ACTTCGAC | -0.0444
144 | CGCCAAAA | 0.119
145 | ATCCAAGA | -0.0224
146 | CTCTGATC | -0.127
147 | CATGCTGG | -0.0773
148 | ACTCCGCG | -0.0414
149 | GTGGAATA | -0.013
150 | ACGACAGA | 0.0203

Row | Sequence | PBM E-score
151 | GACGAGCA | 0.0439
152 | TGAGATAA | 0.211
153 | CTGTGTGC | -0.148
154 | CACAGGAG | -0.043
155 | CTCGAACC | 0.0779
156 | CGTGCCCC | -0.186
157 | CGCTACGA | 0.0756
158 | TAACAGTA | 0.175
159 | TCAAAGCA | -0.00085
160 | AACACAAA | 0.103
161 | CATTGTCG | -0.0489
162 | ACGTTACT | 0.0291
163 | ACAGTCAA | -0.00256
164 | AGAGTAAA | 0.0187
165 | GCGAGCTA | 0.158
166 | GGACGCAA | 0.0616
167 | ATAGTAAC | 0.074
168 | ATGCGTCC | 0.0719
169 | ACGCACGA | 0.171
170 | CAGGCTAG | -0.209
171 | ATAGTTCG | 0.0661
172 | CTGTGAAA | 0.142
173 | AAATTCCT | -0.096
174 | CGTGTCAG | 0.041
175 | ATATACAT | 0.108

Row | Sequence | PBM E-score
176 | CCTCCAGC | -0.372
177 | GAAACTAC | 0.0746
178 | CTTGTTCC | -0.0907
179 | CATTGTAG | 0.106
180 | ACGACCTC | 0.152
181 | AGGTATTG | 0.155
182 | ATTGTTTA | 0.0336
183 | GAACACTA | 0.0307
184 | GCACAGAA | 0.0161
185 | CATACCAA | -0.00757
186 | CTGCGTTC | 0.223
187 | CCGGAGTA | 0.078
188 | ACTGGGAC | 0.00152
189 | AGACGATC | -0.128
190 | AACAACGT | -0.024
191 | GCACAGCA | 0.00454
192 | ATCGTCTG | -0.046
193 | CCCGCGGG | 0.278
194 | GGACCGTA | -0.397
195 | ACGTGCCA | -0.0385
196 | GGCGGCCA | -0.0452
197 | ATTTACGC | -0.0575
198 | ATATTCGG | 0.00862
199 | TATACTAA | 0.0368
200 | AGTTGAGA | 0.00277

Row | Sequence | PBM E-score
201 | GCTTGCTA | -0.0547
202 | CGCACACA | 0.0421
203 | AAGTTTCA | 0.149
204 | CGTCAGTC | -0.0763
205 | GGCGCCAA | 0.133
206 | ACCGACAG | 0.138
207 | ACCGAGTC | -0.254
208 | ACTATATA | 0.23
209 | CCCGACCC | -0.00871
210 | CTGATAAA | 0.199
211 | GATAGCCA | -0.168
212 | AGGCCCAG | -0.183
213 | CATGCTAC | -0.139
214 | AAAAGTAA | 0.106
215 | ACTGCCTA | -0.113
216 | CCACCTCG | -0.154
217 | ACATCCAG | 0.102
218 | AGGTGAAT | 0.102
219 | CGATAGCC | -0.0571

— the supplement of paper PMC3334620
